No constants are given. Whether binding was seen depends on the method and setting. In cells and extracts the contact can be indirect. Here binding means that the protein was enriched with, or labelled near, the bait; the list need not be complete. Where a sequence is shown, tags or fusion partners need not be part of it.
T1: biotin-tagged XAB2 (XPA-binding protein 2) from aviXab2+/+;birA knock-in mice (mouse) (UniProt Q9DCD2)
T1 sequence (chain, biotin on the 15aa Avitag (added in vivo by the BirA ligase)): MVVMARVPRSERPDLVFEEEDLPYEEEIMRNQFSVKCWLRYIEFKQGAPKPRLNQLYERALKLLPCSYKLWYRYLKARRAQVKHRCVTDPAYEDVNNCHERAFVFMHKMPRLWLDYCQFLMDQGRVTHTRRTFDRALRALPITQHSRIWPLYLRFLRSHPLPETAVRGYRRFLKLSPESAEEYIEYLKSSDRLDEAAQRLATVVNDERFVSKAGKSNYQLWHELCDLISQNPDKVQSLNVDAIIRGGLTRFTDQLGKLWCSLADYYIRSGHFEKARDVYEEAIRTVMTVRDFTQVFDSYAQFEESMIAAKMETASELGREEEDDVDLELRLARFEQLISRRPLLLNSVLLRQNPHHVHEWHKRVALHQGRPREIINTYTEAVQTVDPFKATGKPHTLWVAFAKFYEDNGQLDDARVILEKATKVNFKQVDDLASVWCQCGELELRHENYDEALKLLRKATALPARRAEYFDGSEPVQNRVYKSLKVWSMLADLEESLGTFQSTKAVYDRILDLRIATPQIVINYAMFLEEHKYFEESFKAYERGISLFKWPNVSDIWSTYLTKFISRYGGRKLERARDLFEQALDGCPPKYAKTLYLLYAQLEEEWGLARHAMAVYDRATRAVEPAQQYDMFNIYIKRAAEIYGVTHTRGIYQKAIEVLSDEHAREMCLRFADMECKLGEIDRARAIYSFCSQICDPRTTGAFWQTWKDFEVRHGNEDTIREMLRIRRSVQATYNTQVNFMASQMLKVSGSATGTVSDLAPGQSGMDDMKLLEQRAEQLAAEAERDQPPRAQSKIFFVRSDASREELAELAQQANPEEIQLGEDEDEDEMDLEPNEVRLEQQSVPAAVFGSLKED

B1: NUP133 (protein, UniProt Q8R0G9 1-1155)
chain: MFPSVSSPRTPGPGTRRGPLVGIGPTSTPRASRRGLSLGSAVNSPVLFSPAGRRSSVSSRGTPTRIFPHHSISESVNYDVRVFGSSLPVKIMEALTMAEADEQLSVHVDEGGWACLVCTEKLLIWKIAVSPVTKLSVCKELQLPPSDFHGSADLVALSYAATSGEVHSVQAVSVMVATKEGSIRYWPSLAREDTYSDTCVDLGGEKMCRFLTAVQGGSFILSSVGSQLVRLIPESSGKIHQHVLPQGQGMLSGIGRRVSSLFGILSPTSDLMLASVLWDRGGSSFYTLTSSNISKWELDDSSEKQVHSWDVHRTLKESITDAVWGSESNYEAIKEGVNIQYLDLKQNCDGLLILAAAWHLGDSPCLVYYSVITVEDNGNQMSDAVTVEVTQYNPPFQSEDLIACRLMVPNFSSQMTYLYMENAVFVCSTGTGKFSLPQEKIVFDTQGDGILGAGSCAGVPILFSRNSGLVSVTPRENVSLLAEDLEESLTSSVGGRGSESMVFETTTKNETVAHEDKTKLLKAAFLQYCRKDLGRAQIMADELFSSHTDLDSDPELDKAVTQISVDLIDDYPASDPRWAESVPQEAPGLSNTSLIILHQLEDKMKAHCLLVDFLHQVGLFRRLSSYPIRGTPMSTRLLLCEHAEKLSAAITLKNHHSRLPDLVNSAILLALNKRECEVPNSLTPADVFFREVSQVDTICECLLEHEEQVLREVALVSQEWAEVAIDVNTVLKDMLQAATHYRLNKSSMYSQEEVLGKEPEYVPWTATSGPSGIRTAVMRQHGIILKMVYPQADSKLRNVVMEQLVALIDCFLDSYVSQLKSLEKSSDQERYSSLEVEYLQKRSELLSPLLTLGQYPWAASLAEKYCDFDILVQMCEQTDNQARLQRYMTQFADQNFSDFLFRWYLEKGKRGKLLSQPISQHGQLANFLQAHEHLSWLHEINSQELEKAHTTLLGLANMETRYFAKKKTLLGLSKLAALASDISEDRLQEKIEAMAEQERFLLHQETLPEQLLTERQLSLSAMPVLTAPQLISLYICDENRRANEYDFKKALDLLEYIDEEEDVSIDDLKLEILCRALQRDDWSGSDGKDDPIEVSKDSVFVKILQKLIKDGIQLSEYLPEVTDLLRAEQLGSLKSNSYFEFVLKANYEYYVQGQM
B2: NUP153 (protein, UniProt E9Q3G8 1-1462)
chain: MASEAGGIGGGGGGGKIRTRRCHQGPVKPYQQGRPQHQGILSRVTESVKNIVPGWLQRYFNKSENACSCSPDADEVPPWPENREDEHAIYADENTNTDDGRITPDPAGSNTEEPSTTSTASNYPDVLTRPSLHRSHLNFSVLESPALHCQPSTSSAFPIGSSGFSLVKEIKDSTSQHDDDNISTTSGFSSRASEKDIAVSKNTSLPPLWSPEAERSHSLSQHTAISSKKPAFNLSAFGTLSTSLGNSSILKTSQLGDSPFYPGKTTYGGAAAAVRQNKVRSTPYQAPVRRQMKAKQLNAQSYGVTSSTARRILQSLEKMSSPLADAKRIPSAVSSPLNSPLDRSGIDNTVFQAKKEKVDSQYPPVQRLMTPKPVSIATNRTVYFKPSLTPSGDLRKTNQRIDKKNSTVDEKSISRQNREQESGFSYPNFSIPAANGLSSGVGGGGGKMRRERTHFVAPKPPENEEVEAPLLPQISLPISSSSLPTFSFSSPVTSASPSPVSSSQPLPNKVQMTSLGSTGSPVFTFSSPIVKSTQAAVLPPASIGFTFSVPLAKTEFSGSNSSSETVLSSSAQDITAVNSSSYKKRSAPCEDPFTPAKILREGSVLDILKTPGFASPKVDSPALQPTTTSSIVYTRPAISTFSSSGIEYGESLKAGSSWQCDTCLLQNKVTDNKCIACQAAKLPLKETAKQTGTGTPSKSDKPASTSGTGFGDKFKPAIGTWDCDTCLVQNKPEAVKCVACETPKPGTGVKRALTLTVASESPVTASSSTTVTTGTLGFGDKFKRPVGSWECPVCCVCNKAEDNRCVSCTSEKPGLVSASSSSPAPVSLSSGGCLGLDKFKKPEGSWDCEVCLVQNKADSAKCIACESAKPGTKSEFKGFGTSSSLNPAPSAFKFGIPSSSSGLSQTLTSTGNFKFGDQGGFKLGTSSDSGSTNTMNTNFKFSKPTGDFKFGVLSDSKPEEVKNDNKNDNFQFGSSSGLTNPASSAPFQFGVSTLGQQEKKEELPKSSPAGFSFGAGVNNPPNAAIDTTATSENKSGFNFGTLDTKSVSVTPFTYKTTEAKKEDAPATKGGFTFGKVGSSSLPSSSMFVLGRTEEKQQEPVTSTSLVFGKKADSEEPKCQPVFSFGNSEQTKDESSKPTFSFSVAKPSGKESEQLAKATFAFGNQTNTTTDQGAAKPVFSFLNSSSSSSSAPATSSSGGIFGSSTSSSNPPVAAFVFGQASNPVSSSAFGNAAESSTSQSLLFPQESEPATTSSTAPAASPFVFGTGASSNSVSSGFTFGATTTSSSSGSSFVFGTGHSAPSASPAFGANQTPTFGQSQGASQPNPPSFGSISSSTALFSAGSQPVPPPIFGTVSSSSQPPVFGQQPSQSAFGSGTANASSVFQFGSSTTNFNFTNNNPSGVFTFGASPSTPAASAQPSGSGVFSFSQSPASFTVGSNGKNMFSSSGTSVSGRKIKTAVRRKK
B3: NUP160 (protein, UniProt Q9Z0W3 1-1402)
chain: MAAAGSLERSFVELSGAERERPRHFREFTVCDIGTASAAFGTVKYSESAGGFYYVESGKLFSITRNRFIHWKTSGDTLELVEESLDLNLLNNAVRLKFQNYNILPGGVHVSETQNHVIILILTNQTVHRLILPHPSRMYRSELVTESQMQSIFTDIGKVDFRDPCNSQLIPSVPGLSPGSTTSAAWLSSDGEALFALPSASGGIFVLKLPPYDVPGIASVVELKQSSVMQRLLTGWMPTAIRGDHGPSDRALSLAVHCVEHDAFIFALCQDHKLRMWSYKDQMCLMVADMLEYVPVNKDLRLTAGTGHKLRLAYSPSMGLYLGIYMHAPKRGQFCVFQLVSTENNRYSLDHISSLFTSQETLVDFALTSTDIWALWHDAENQTIVKYINFEHNVAGQWNPVFMQPLPEEEIVIRDDQDPREMYLRSLFTPGHFINAALCKALQIFCRGTERNLDLSWNELKKEITLAVENELQGSVTEYEFSQDEFRTLQQEFWCKFYACVLQYQEALSHPLALHLNPVTNMVCLLKKGYLSFLVPSSLVDHLYLLPDEHLLTEDETTISDDADVARDVLCLIKCLRMIGESVTMDMAVLMETSCYNLQSPEKAAEHILEDLITIDVENVMEDICSKLQEIRNPVHAIGLLIREMDYETEVEMEKGFDPAQPLNVRMNLSQLYGSSTAGYIVCRGVYKIASTRFLICRDLLILQQLLTRLGDAVILGAGQLFQAQQDLLHRTAPLLLSYYLIKWASQCLATDVPVDTLESNLQHLSVLELTDSGALMANKLVSSPQTIMELFFQEVARKQIISHLFSQPKAPLSQTGLNWPEMITAVTGYLLQLLWPSNPGCLFLECLMGNCQYVQLQDYIQLLHPWCQVNVGSCRFMLGRCYLVTGEVQKALECFCQAASEVGKEEFLDRLIRSEDGEIVSTPKLQYYDKVLRLLDVVGLPELVIQLATSAITEAGDDWKSQATLRTCIFKHHLDLGHNSQAYEALTQIPDSSRQLDCLRQLVVVLCERSQLQDLVEFPYVNLHNEVVGIIESRARAVDLMTHNYYELLYAFHIYRHNYRKAGTVMFEYGMRLGREVRTLRGLEKQGNCYLAAINCLRLIRPEYAWIVQPASGAVSDRPGASPKRNHDGECTAAPTNRQIEILELEDLEKEYSLARIRLTLARHDPSVIAIAGSSSAKEMSALLVQAGLFDTAISLCQTFTLPLTPVFEGLAFKCIKLQFGGEAAQGEAWSWLATNQLSSVITTKESSATDEAWRLLSTYLERYKVQNNLYHHCVINKLLSHGVPLPNWLINSYKKVDAAELLRLYLNYDLLEEAVDLVSEYVDAVLGKGHQYFGIEFPLSATAPMVWLPYSSIDQLLQALGENSANSHNIILSQKILDKLEDYQQKVDKATRDLLYRRDL

Molecular target: T1, biotin-tagged XAB2 (XPA-binding protein 2) from aviXab2+/+;birA knock-in mice (mouse)
Assay: affinity purification with mass spectrometry; bXAB2 captured on M-280 streptavidin beads from high-salt nuclear extracts of P15 bXAB2 livers treated with benzonase and RNase A; BirA livers as control; three biological replicates, nLC-MS/MS

Binder	binding
B1	binds
B2	binds
B3	binds
